PubChem BioAssay AID1259306, Sanger Institute – 2017
Here is a random part of 794 reagents tested. In the full data, 11 (1.4%) got an active call. 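Calls reflect knock-down alone; synergy scores play no part, so knock-downs synergising with a drug can be called no change.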 Not all columns of the deposit are shown. Not stated in the record: the amount of reagent, the time to read-out.

- Screen: 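Find kinases whose loss reduces colorectal cancer cell viability or aids targeted drugs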 (primary screen)
- Cell system: human SNU-C5 colorectal cancer cells
- Reagents: siRNA pool against human genes
- Challenge: DMSO vehicle alone, or one anchor drug: BYL719 at 1 µM, cetuximab at 5 µg/ml or trametinib at 10 nM, given 24 h into the assay
- Detection: 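Replicate-averaged viability against non-targeting pool control, given as fraction and robust z-score; separate synergy scores for BYL719, cetuximab and trametinib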
- Reading the numbers: robust z-score, knock-down alone: higher = more viable cells
- Call rule: 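Essential if knock-down without drug gives a robust z-score under -3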
- Meaning of the calls: active = essential (knock-down alone); inactive = no change alone

MAST3 scored robust z-score, knock-down alone -0.0209; inactive. UHMK1 gave robust z-score, knock-down alone -0.895; inactive. With knock-down of TRIO the results were robust z-score, knock-down alone -0.407; inactive. PIK3R2 showed robust z-score, knock-down alone 0.0857; inactive. Knock-down of PIK3CD came out at: robust z-score, knock-down alone 0.989; inactive. For TNK2, the entry reads robust z-score, knock-down alone 0.989; inactive.

Against NME1, the values are robust z-score, knock-down alone 0.537; inactive. After knock-down of MAST1, the screen gave robust z-score, knock-down alone 0.989; inactive. UCK1 showed robust z-score, knock-down alone 0.989; inactive.

In a second layout: 4 of the entries above
{"gene":"MAST3","robust z-score, knock-down alone":-0.0209,"Outcome":"inactive"}
{"gene":"UHMK1","robust z-score, knock-down alone":-0.895,"Outcome":"inactive"}
{"gene":"TRIO","robust z-score, knock-down alone":-0.407,"Outcome":"inactive"}
{"gene":"PIK3R2","robust z-score, knock-down alone":0.0857,"Outcome":"inactive"}

The results go on:
For TAF1 the deposit lists robust z-score, knock-down alone -0.149; inactive. SCYL3 scored robust z-score, knock-down alone 0.45; inactive. Silencing of PIK3C2A resulted in: robust z-score, knock-down alone -3.06; active. For RPS6KA4, the entry reads robust z-score, knock-down alone 0.518; inactive. With knock-down of PRKCZ, the record shows robust z-score, knock-down alone -1.22; inactive. Against CDK17, the values are robust z-score, knock-down alone 0.371; inactive.

NPR2 showed robust z-score, knock-down alone -0.635; inactive. Knock-down of ETNK2 gave: robust z-score, knock-down alone -0.733; inactive. After knock-down of SOS2 the results were robust z-score, knock-down alone 0.692; inactive. For SMAD4, the entry reads robust z-score, knock-down alone -1.26; inactive. AK7 showed robust z-score, knock-down alone -1.38; inactive. Silencing of STK11 came out at: robust z-score, knock-down alone 0.459; inactive.

With knock-down of WNK3 the results were robust z-score, knock-down alone 0.989; inactive. Knock-down of SYNCRIP came out at: robust z-score, knock-down alone -1.88; inactive. Against DCLK2, the entry reads robust z-score, knock-down alone -2.09; inactive. For TLK1, the entry reads robust z-score, knock-down alone -0.91; inactive. Against PRKD3 the deposit lists robust z-score, knock-down alone -0.951; inactive. Against ITPKA, the entry reads robust z-score, knock-down alone 0.0859; inactive.

TEC showed robust z-score, knock-down alone 0.331; inactive.
